The target of assay [1] is T1, CKRC3/TCU2 (Naa25, auxiliary subunit of Arabidopsis NatB), pGBKT7 fusion (Arabidopsis thaliana) (UniProt F4KEY9).
T1 sequence: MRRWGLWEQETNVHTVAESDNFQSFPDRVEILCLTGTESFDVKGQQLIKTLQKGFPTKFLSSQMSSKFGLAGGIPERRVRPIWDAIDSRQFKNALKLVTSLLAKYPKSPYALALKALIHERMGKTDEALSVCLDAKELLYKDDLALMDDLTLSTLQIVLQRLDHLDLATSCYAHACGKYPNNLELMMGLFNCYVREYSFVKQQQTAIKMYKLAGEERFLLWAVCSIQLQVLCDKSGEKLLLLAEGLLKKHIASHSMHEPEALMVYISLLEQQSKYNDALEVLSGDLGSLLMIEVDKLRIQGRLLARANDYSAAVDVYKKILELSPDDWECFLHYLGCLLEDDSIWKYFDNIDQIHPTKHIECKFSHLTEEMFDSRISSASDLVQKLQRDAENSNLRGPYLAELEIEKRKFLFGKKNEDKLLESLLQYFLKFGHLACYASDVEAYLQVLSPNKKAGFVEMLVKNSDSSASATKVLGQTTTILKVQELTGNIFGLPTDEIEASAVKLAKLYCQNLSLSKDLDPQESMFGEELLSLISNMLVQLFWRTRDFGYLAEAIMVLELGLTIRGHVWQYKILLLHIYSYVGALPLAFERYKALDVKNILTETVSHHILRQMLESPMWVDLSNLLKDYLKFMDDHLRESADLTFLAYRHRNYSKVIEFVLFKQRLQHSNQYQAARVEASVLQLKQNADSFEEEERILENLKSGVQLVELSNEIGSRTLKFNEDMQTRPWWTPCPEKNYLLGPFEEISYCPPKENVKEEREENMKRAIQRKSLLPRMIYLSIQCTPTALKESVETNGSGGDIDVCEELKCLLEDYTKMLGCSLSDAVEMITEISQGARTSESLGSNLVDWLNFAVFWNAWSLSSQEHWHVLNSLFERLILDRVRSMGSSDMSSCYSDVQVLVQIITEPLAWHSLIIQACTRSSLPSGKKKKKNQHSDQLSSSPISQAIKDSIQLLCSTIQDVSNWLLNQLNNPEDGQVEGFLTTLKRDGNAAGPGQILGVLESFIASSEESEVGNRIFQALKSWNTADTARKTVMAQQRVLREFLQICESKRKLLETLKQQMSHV
Kind of assay: two-hybrid; pGBKT7-CKRC3/TCU2 with pGADT7-NBC in yeast; growth on SD/-Leu/-Trp/-His/-Ade with or without X-alpha-Gal and AbA, 30 °C.

The target of assay [2] is T2, Myc-tagged CKRC3/TCU2 expressed in N. benthamiana leaves (Arabidopsis thaliana) (UniProt F4KEY9).
T2 sequence: T1 sequence
Kind of assay: co-IP; Myc-tagged CKRC3/TCU2 and HA-tagged NBC transiently co-expressed in N. benthamiana leaves; anti-Myc or anti-HA antibody with protein G-Sepharose; IP buffer 50 mM Tris pH 7.5, 150 mM NaCl, 10% glycerol, 0.1% Nonidet P-40, 5 mM DTT; 4 °C.

These are yes or no findings as the source states them, for the method shown. For some assays here: In cells and extracts the contact can be indirect. Some entries that bind do so weakly or less than the wild type. Where a sequence is shown, tags or fusion partners need not be part of it.

The record followed here is paper PMC9780221.

B1: NBC (Naa20, catalytic subunit of Arabidopsis NatB), pGADT7 fusion (protein, UniProt Q8LGI8 1-174)
chain: MTTIRRFSCNDLLRFTSVNLDHLTETFNMSFYMTYLARWPDYFHVAEGPGNRVMGYIMGKVEGQGESWHGHVTAVTVSPEYRRQQLAKKLMNLLEDISDKIDKAYFVDLFVRASNTPAIKMYEKLGYIIYRRVLRYYSGEEDGLDMRKALSRDVEKKSVIPLKRPITPDELEYD
As for B1, in assay [1], the binding result is listed as “binds”.

B2: HA-tagged NBC expressed in N. benthamiana leaves (protein, UniProt Q8LGI8 1-174)
chain: B1 chain
With B2, in assay [2], the binding entry is reported as “binds”.
